# Some of the results follow.
# Tests used:
# Test in all cases: glycan array binding signal (z-score within array); higher = stronger binding
# Conditions in all cases: glycan notation: IUPAC condensed, linker removed
# [1] = target: Neu5Ac(a2-6)Gal(b1-3)GlcNAc(b1-3)[Gal(b1-4)GlcNAc(b1-6)]Gal(b1-4)Glc
# Method in brief: (§1)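 The Consortium for Functional Glycomics database supplied 3228 glycan arrays, of which those lacking an available protein sequence were dropped. The binding signal, a within-array Z-score, was averaged across arrays of the same protein sequence and across linkers. Negative scores can be read as non-binding.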
# Neu5Ac(a2-6)Gal(b1-4)Glc = target: Neu5Ac(a2-6)Gal(b1-4)Glc
# Method in brief: as §1
# [2] = target: Neu5Ac(a2-6)Gal(b1-4)GlcNAc
# Method in brief: as §1
# [3] = target: Neu5Ac(a2-6)Gal(b1-4)GlcNAc(b1-2)Man
# Method in brief: as §1
# [4] = target: Neu5Ac(a2-6)Gal(b1-4)GlcNAc(b1-2)Man(a1-3)Man(b1-4)GlcNAc(b1-4)GlcNAc
# Method in brief: as §1
# [5] = target: Neu5Ac(a2-6)Gal(b1-4)GlcNAc(b1-2)Man(a1-3)[Gal(b1-4)GlcNAc(b1-2)Man(a1-6)]Man(b1-4)GlcNAc(b1-4)GlcNAc
# Method in brief: as §1
# [6] = target: Neu5Ac(a2-6)Gal(b1-4)GlcNAc(b1-2)Man(a1-3)[GlcNAc(b1-2)Man(a1-6)]Man(b1-4)GlcNAc(b1-4)GlcNAc
# Method in brief: as §1
# [7] = target: Neu5Ac(a2-6)Gal(b1-4)GlcNAc(b1-2)Man(a1-3)[GlcNAc(b1-4)][Neu5Ac(a2-6)Gal(b1-4)GlcNAc(b1-2)Man(a1-6)]Man(b1-4)GlcNAc(b1-4)GlcNAc
# Method in brief: as §1
# [8] = target: Neu5Ac(a2-6)Gal(b1-4)GlcNAc(b1-2)Man(a1-3)[Man(a1-6)]Man(b1-4)GlcNAc(b1-4)GlcNAc
# Method in brief: as §1
# [9] = target: Neu5Ac(a2-6)Gal(b1-4)GlcNAc(b1-2)Man(a1-3)[Neu5Ac(a2-3)Gal(b1-4)GlcNAc(b1-2)Man(a1-6)]Man(b1-4)GlcNAc(b1-4)GlcNAc
# Method in brief: as §1
# [10] = target: Neu5Ac(a2-6)Gal(b1-4)GlcNAc(b1-2)Man(a1-3)[Neu5Ac(a2-6)Gal(b1-4)GlcNAc(b1-2)Man(a1-6)]Man(b1-4)GlcNAc(b1-4)GlcNAc
# Method in brief: as §1
# [11] = target: Neu5Ac(a2-6)Gal(b1-4)GlcNAc(b1-2)Man(a1-3)[Neu5Ac(a2-6)Gal(b1-4)GlcNAc(b1-2)Man(a1-6)]Man(b1-4)GlcNAc(b1-4)[Fuc(a1-6)]GlcNAc
# Method in brief: as §1
# [12] = target: Neu5Ac(a2-6)Gal(b1-4)GlcNAc(b1-2)Man(a1-6)Man(b1-4)GlcNAc(b1-4)GlcNAc
# Method in brief: as §1
# [13] = target: Neu5Ac(a2-6)Gal(b1-4)GlcNAc(b1-2)Man(a1-6)[Gal(b1-4)GlcNAc(b1-2)Man(a1-3)]Man(b1-4)GlcNAc(b1-4)GlcNAc
# Method in brief: as §1
# [14] = target: Neu5Ac(a2-6)Gal(b1-4)GlcNAc(b1-2)Man(a1-6)[GlcNAc(b1-2)Man(a1-3)]Man(b1-4)GlcNAc(b1-4)GlcNAc
# Method in brief: as §1
# [15] = target: Neu5Ac(a2-6)Gal(b1-4)GlcNAc(b1-2)Man(a1-6)[Man(a1-3)]Man(b1-4)GlcNAc(b1-4)GlcNAc
# Method in brief: as §1
# [16] = target: Neu5Ac(a2-6)Gal(b1-4)GlcNAc(b1-2)[Neu5Ac(a2-6)Gal(b1-4)GlcNAc(b1-4)]Man(a1-3)[GlcNAc(b1-4)][Neu5Ac(a2-6)Gal(b1-4)GlcNAc(b1-2)[Neu5Ac(a2-6)Gal(b1-4)GlcNAc(b1-6)]Man(a1-6)]Man(b1-4)GlcNAc(b1-4)GlcNAc
# Method in brief: as §1
# [17] = target: Neu5Ac(a2-6)Gal(b1-4)GlcNAc(b1-2)[Neu5Ac(a2-6)Gal(b1-4)GlcNAc(b1-4)]Man(a1-3)[GlcNAc(b1-4)][Neu5Ac(a2-6)Gal(b1-4)GlcNAc(b1-4)Man(a1-6)]Man(b1-4)GlcNAc(b1-4)GlcNAc
# Method in brief: as §1
# [18] = target: Neu5Ac(a2-6)Gal(b1-4)GlcNAc(b1-2)[Neu5Ac(a2-6)Gal(b1-4)GlcNAc(b1-6)]Man(a1-6)[Neu5Ac(a2-6)Gal(b1-4)GlcNAc(b1-2)Man(a1-3)][GlcNAc(b1-4)]Man(b1-4)GlcNAc(b1-4)GlcNAc
# Method in brief: as §1
# [19] = target: Neu5Ac(a2-6)Gal(b1-4)GlcNAc(b1-3)Gal(b1-3)GlcNAc
# Method in brief: as §1
# [20] = target: Neu5Ac(a2-6)Gal(b1-4)GlcNAc(b1-3)Gal(b1-4)GlcNAc
# Method in brief: as §1
# [21] = target: Neu5Ac(a2-6)Gal(b1-4)GlcNAc(b1-3)Gal(b1-4)GlcNAc(b1-2)Man(a1-3)[Neu5Ac(a2-6)Gal(b1-4)GlcNAc(b1-3)Gal(b1-4)GlcNAc(b1-2)Man(a1-6)]GalNAc
# Method in brief: as §1
# [22] = target: Neu5Ac(a2-6)Gal(b1-4)GlcNAc(b1-3)Gal(b1-4)GlcNAc(b1-3)Gal(b1-4)GlcNAc
# Method in brief: as §1
# [23] = target: Neu5Ac(a2-6)Gal(b1-4)GlcNAc(b1-3)Gal(b1-4)GlcNAc(b1-3)Gal(b1-4)GlcNAc(b1-2)Man(a1-3)[Neu5Ac(a2-6)Gal(b1-4)GlcNAc(b1-3)Gal(b1-4)GlcNAc(b1-3)Gal(b1-4)GlcNAc(b1-2)Man(a1-6)]GalNAc
# Method in brief: as §1
# [24] = target: Neu5Ac(a2-6)Gal(b1-4)GlcNAc(b1-3)Gal(b1-4)GlcNAc(b1-3)GalNAc
# Method in brief: as §1
# [25] = target: Neu5Ac(a2-6)Gal(b1-4)GlcNAc(b1-3)Gal(b1-4)GlcNAc(b1-3)[Neu5Ac(a2-6)Gal(b1-4)GlcNAc(b1-3)Gal(b1-4)GlcNAc(b1-6)]GalNAc
# Method in brief: as §1
# [26] = target: Neu5Ac(a2-6)Gal(b1-4)GlcNAc(b1-3)Gal(b1-4)GlcNAc(b1-6)[Gal(b1-3)]GalNAc
# Method in brief: as §1
# [27] = target: Neu5Ac(a2-6)Gal(b1-4)GlcNAc(b1-3)Gal(b1-4)[Fuc(a1-3)]GlcNAc(b1-3)Gal(b1-4)[Fuc(a1-3)]GlcNAc
# Method in brief: as §1
# [28] = target: Neu5Ac(a2-6)Gal(b1-4)GlcNAc(b1-3)GalNAc
# Method in brief: as §1
# [29] = target: Neu5Ac(a2-6)Gal(b1-4)GlcNAc(b1-3)[Neu5Ac(a2-6)Gal(b1-4)GlcNAc(b1-6)]GalNAc
# Method in brief: as §1
# [30] = target: Neu5Ac(a2-6)Gal(b1-4)GlcNAc(b1-6)GalNAc
# Method in brief: as §1
# [31] = target: Neu5Ac(a2-6)Gal(b1-4)GlcNAc(b1-6)[Gal(b1-3)GlcNAc(b1-3)]Gal(b1-4)Glc
# Method in brief: as §1
# [32] = target: Neu5Ac(a2-6)Gal(b1-4)GlcNAc(b1-6)[Gal(b1-3)]GalNAc
# Method in brief: as §1
# [33] = target: Neu5Ac(a2-6)Gal(b1-4)GlcNAc6S
# Method in brief: as §1
# Neu5Ac(a2-6)GalNAc = target: Neu5Ac(a2-6)GalNAc
# Method in brief: as §1
# [34] = target: Neu5Ac(a2-6)GalNAc(b1-4)GlcNAc
# Method in brief: as §1
# [35] = target: Neu5Ac(a2-6)GalNAc(b1-4)GlcNAc6S
# Method in brief: as §1
# [36] = target: Neu5Ac(a2-6)GlcNAc(b1-4)GlcNAc
# Method in brief: as §1
binder,measurement,setting,value
Thrombomodulin Lectin (Mus musculus) (protein) LSALAKLQPTGSQCVEHECFALFQGPATFLDASQACQRLQGHLMTVRSSVAADVISLLLSQSSMDLGPWIGLQLPQGCDDPVHLGPLRGFQWVTGDNHTSYSRWARPNDQTAPLCGPLCVTVSTATEAAPGEPAWEEKPCETETQGFLCEFYFTASCRVDPIPVREDTKEEEGAGEPPVSPTPGSPTGPPSARPVLDEPRVPITQNPCPPLKECPPCAAPDLEGGPSVFIFPPKIKDVLMISLSPMVTCVVVDVSEDDPDVQISWFVNNVEVHTAQTQTHREDYNSTLRVVSALPIQHQDWMSGKAFACAVNNRALPSPIEKTISKPRGPVRAPQVYVLPPPAEEMTKKEFSLTCMITGFLPAEIAVDWTSNGRTEQNYKNTATVLDSDGSYFMYSKLRVQKSTWERGSLFACSVVHEGLHNHLTTKTISRSLGK,glycan array binding signal (z-score),[1],0.323
same,glycan array binding signal (z-score),Neu5Ac(a2-6)Gal(b1-4)Glc,0.211
same,glycan array binding signal (z-score),[2],-0.75
same,glycan array binding signal (z-score),[3],0.384
same,glycan array binding signal (z-score),[4],0.672
same,glycan array binding signal (z-score),[5],1.03
same,glycan array binding signal (z-score),[6],-0.508
same,glycan array binding signal (z-score),[7],-1.11
same,glycan array binding signal (z-score),[8],2.04
same,glycan array binding signal (z-score),[9],-0.553
same,glycan array binding signal (z-score),[10],-1.07
same,glycan array binding signal (z-score),[11],0.443
same,glycan array binding signal (z-score),[12],-0.215
same,glycan array binding signal (z-score),[13],0.302
same,glycan array binding signal (z-score),[14],-0.552
same,glycan array binding signal (z-score),[15],-1.33
same,glycan array binding signal (z-score),[16],-0.889
same,glycan array binding signal (z-score),[17],0.13
same,glycan array binding signal (z-score),[18],0.307
same,glycan array binding signal (z-score),[19],-1.26
same,glycan array binding signal (z-score),[20],-1.35
same,glycan array binding signal (z-score),[21],1.35
same,glycan array binding signal (z-score),[22],-0.834
same,glycan array binding signal (z-score),[23],1.5
same,glycan array binding signal (z-score),[24],-0.528
same,glycan array binding signal (z-score),[25],0.368
same,glycan array binding signal (z-score),[26],-0.397
same,glycan array binding signal (z-score),[27],-1.06
same,glycan array binding signal (z-score),[28],-0.306
same,glycan array binding signal (z-score),[29],0.992
same,glycan array binding signal (z-score),[30],0.784
same,glycan array binding signal (z-score),[31],-0.348
same,glycan array binding signal (z-score),[32],1.19
same,glycan array binding signal (z-score),[33],-1.62
same,glycan array binding signal (z-score),Neu5Ac(a2-6)GalNAc,-0.194
same,glycan array binding signal (z-score),[34],-1.18
same,glycan array binding signal (z-score),[35],-0.087
same,glycan array binding signal (z-score),[36],0.971

# A stretch from further up, as a working copy:
binder,measurement,setting,value
Thrombomodulin Lectin (Mus musculus) (protein) LSALAKLQPTGSQCVEHECFALFQGPATFLDASQACQRLQGHLMTVRSSVAADVISLLLSQSSMDLGPWIGLQLPQGCDDPVHLGPLRGFQWVTGDNHTSYSRWARPNDQTAPLCGPLCVTVSTATEAAPGEPAWEEKPCETETQGFLCEFYFTASCRVDPIPVREDTKEEEGAGEPPVSPTPGSPTGPPSARPVLDEPRVPITQNPCPPLKECPPCAAPDLEGGPSVFIFPPKIKDVLMISLSPMVTCVVVDVSEDDPDVQISWFVNNVEVHTAQTQTHREDYNSTLRVVSALPIQHQDWMSGKAFACAVNNRALPSPIEKTISKPRGPVRAPQVYVLPPPAEEMTKKEFSLTCMITGFLPAEIAVDWTSNGRTEQNYKNTATVLDSDGSYFMYSKLRVQKSTWERGSLFACSVVHEGLHNHLTTKTISRSLGK,glycan array binding signal (z-score),[12],-0.215
same,glycan array binding signal (z-score),[13],0.302
same,glycan array binding signal (z-score),[14],-0.552
same,glycan array binding signal (z-score),[15],-1.33
same,glycan array binding signal (z-score),[16],-0.889
same,glycan array binding signal (z-score),[17],0.13
same,glycan array binding signal (z-score),[18],0.307
same,glycan array binding signal (z-score),[19],-1.26

# — the supplement of paper PMC8728848
